# Construct, isoform or probe ends are uncertain for at least one entry. For some assays here: Weaker means in comparison with the reference protein, sequence or condition of that experiment. Where a protein sequence is shown, tags need not be part of it. For some assays here: Results from cells or extracts need not show a direct contact. At least one verdict rests on a figure or table, not on a statement of the authors.
# What was measured:
# [1] = biological target: T1, His-Sall2 (Mus musculus) (UniProt Q9QX96); experiment: EMSA; settings: 5 uM ZnCl2, 2.5 mM MgCl2, 50 nM protein, EMSA: 10 mM HEPES pH 7.5, 100 mM KCl, 3 mM DTT, 0.05% NP-40, 3% glycerol, 5 ug/ml BSA, 2.5 mM MgCl2, 5 uM ZnCl2, 100 ng pBluescript DNA, 20 fmol probe in 20 ul, recombinant protein, protein details: N-terminal 6xHis (pQE-80L), label: 32P end label
# T1 sequence (looked up, limits assumed): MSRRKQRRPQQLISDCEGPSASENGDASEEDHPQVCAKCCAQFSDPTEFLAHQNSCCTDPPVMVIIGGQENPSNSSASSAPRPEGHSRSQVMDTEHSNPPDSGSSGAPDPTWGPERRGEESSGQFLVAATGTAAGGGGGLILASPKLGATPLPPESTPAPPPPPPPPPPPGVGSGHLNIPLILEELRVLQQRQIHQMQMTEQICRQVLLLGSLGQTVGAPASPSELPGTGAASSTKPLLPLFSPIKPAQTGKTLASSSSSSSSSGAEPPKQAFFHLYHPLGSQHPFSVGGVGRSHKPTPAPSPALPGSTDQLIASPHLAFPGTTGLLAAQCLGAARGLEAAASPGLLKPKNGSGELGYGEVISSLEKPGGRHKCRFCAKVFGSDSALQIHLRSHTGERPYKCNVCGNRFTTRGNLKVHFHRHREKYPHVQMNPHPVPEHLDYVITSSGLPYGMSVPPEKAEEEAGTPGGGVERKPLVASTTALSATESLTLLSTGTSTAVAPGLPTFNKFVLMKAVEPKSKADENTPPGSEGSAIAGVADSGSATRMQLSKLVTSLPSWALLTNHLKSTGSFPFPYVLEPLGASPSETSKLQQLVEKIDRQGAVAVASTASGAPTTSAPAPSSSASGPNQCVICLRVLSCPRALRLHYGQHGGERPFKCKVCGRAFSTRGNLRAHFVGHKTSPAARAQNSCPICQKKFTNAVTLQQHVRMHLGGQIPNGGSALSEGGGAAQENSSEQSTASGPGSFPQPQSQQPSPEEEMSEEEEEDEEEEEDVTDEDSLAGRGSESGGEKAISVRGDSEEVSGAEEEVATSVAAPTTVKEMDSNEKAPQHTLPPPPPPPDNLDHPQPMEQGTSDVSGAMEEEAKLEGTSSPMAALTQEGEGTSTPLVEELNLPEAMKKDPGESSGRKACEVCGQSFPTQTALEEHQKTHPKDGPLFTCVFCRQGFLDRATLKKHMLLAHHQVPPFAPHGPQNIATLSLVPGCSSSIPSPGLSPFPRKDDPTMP
# [2] = biological target: T2, Sall2-GFP (Mus musculus) (UniProt Q9QX96); experiment: EMSA; settings: HEK293 nuclear extract, EMSA: 10 mM HEPES pH 7.5, 100 mM KCl, 3 mM DTT, 0.05% NP-40, 3% glycerol, 5 ug/ml BSA, 2.5 mM MgCl2, 5 uM ZnCl2, 100 ng pBluescript DNA, 20 fmol probe in 20 ul, protein in an extract, protein details: C-terminal GFP, label: 32P end label
# T2 sequence (looked up, limits assumed): T1 sequence (looked up, limits assumed)
# [3] = strong binding, anti-GFP supershift
sequence,measurement,setting,value
"CGATCGGGGCGGGGCGAGGGGCGGGCCGATC (double strand) [cSall2 double site, cSall2(II)]",binding result,[1]; supershift with anti-His,binds
same,binding result,[2],binds
GGACAGGGGCGGGGACAGGGGCGGGCCGGGC (double strand) [h(1+2)],binding result,[1]; similar to cSall2,binds
same,binding result,[2]; [3],binds
TCGAAGGGGCGGGGACACGGGCGGGATGTCG (double strand) [m(1+2)],binding result,"[1]; similar to cSall2, supershift with anti-His",binds
same,binding result,[2]; [3],binds
TCTGCGGGGCGGGGACAGGGGCGGGGACAGG (double strand) [h(2+3)],binding result,"[1]; weaker than cSall2, m(1+2), h(1+2)",binds more weakly
TCTGCGGGGCGGGGACAGGGGCGGGGACAGGGGCGGGCCGGGC (double strand) [h(1+2+3)],binding result,[1]; single retardation band,binds

# Source: paper PMC4650718
